# No constants are given. Whether binding was seen depends on the method and setting. Binding seen in cells or lysates may run through a third protein. Here binding means that the protein was enriched with, or labelled near, the bait; the list need not be complete. Tags and fused reporters may be left off the sequences shown.
# Amino acid sequences for entries named in this document (tags omitted).
# UniProt A2AIV2: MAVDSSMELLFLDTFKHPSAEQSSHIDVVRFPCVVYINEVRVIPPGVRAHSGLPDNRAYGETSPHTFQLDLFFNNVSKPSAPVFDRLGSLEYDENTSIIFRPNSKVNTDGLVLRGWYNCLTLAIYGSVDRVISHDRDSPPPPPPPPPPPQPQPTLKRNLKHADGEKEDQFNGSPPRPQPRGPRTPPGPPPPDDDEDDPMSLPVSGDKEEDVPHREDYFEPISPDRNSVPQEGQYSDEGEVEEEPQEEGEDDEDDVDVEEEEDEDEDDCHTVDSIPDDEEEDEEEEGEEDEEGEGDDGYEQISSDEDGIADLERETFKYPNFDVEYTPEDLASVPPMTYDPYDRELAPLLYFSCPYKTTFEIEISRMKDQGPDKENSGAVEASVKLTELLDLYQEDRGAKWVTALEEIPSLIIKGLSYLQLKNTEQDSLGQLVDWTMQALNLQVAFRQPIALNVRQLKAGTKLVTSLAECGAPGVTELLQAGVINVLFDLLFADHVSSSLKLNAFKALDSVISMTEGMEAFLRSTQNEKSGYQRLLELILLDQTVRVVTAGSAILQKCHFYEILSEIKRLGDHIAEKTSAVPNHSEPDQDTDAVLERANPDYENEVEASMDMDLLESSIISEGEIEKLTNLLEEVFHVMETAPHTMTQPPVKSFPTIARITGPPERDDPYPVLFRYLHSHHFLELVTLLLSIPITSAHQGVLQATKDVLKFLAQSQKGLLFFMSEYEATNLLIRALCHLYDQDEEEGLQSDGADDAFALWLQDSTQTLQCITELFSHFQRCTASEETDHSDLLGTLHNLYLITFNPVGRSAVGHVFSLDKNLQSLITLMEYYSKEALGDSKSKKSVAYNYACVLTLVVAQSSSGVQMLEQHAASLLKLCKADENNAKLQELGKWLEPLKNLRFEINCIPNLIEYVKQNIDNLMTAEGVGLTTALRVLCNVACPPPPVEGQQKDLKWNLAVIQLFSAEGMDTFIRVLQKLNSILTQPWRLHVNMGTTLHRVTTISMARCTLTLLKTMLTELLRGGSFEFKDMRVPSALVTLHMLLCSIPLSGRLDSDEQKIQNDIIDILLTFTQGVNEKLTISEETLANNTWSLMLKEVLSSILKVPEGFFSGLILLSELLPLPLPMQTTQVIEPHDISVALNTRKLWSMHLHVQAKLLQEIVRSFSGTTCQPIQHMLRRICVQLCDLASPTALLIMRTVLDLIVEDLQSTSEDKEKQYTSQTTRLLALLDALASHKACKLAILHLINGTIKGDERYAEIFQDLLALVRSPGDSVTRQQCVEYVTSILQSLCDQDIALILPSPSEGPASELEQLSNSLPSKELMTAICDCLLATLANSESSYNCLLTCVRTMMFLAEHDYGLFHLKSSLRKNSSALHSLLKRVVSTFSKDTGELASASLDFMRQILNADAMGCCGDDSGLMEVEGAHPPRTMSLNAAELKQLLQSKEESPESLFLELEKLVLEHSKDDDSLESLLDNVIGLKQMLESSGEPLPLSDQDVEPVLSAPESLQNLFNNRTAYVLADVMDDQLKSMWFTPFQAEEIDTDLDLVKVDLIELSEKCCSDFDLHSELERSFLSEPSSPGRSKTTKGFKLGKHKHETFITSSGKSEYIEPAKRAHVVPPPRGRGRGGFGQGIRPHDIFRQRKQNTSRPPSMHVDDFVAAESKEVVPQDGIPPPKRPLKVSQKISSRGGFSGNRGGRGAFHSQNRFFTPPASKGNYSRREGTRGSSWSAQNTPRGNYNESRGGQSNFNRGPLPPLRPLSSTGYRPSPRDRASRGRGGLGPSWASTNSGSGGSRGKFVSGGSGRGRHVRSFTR
# UniProt E9Q784: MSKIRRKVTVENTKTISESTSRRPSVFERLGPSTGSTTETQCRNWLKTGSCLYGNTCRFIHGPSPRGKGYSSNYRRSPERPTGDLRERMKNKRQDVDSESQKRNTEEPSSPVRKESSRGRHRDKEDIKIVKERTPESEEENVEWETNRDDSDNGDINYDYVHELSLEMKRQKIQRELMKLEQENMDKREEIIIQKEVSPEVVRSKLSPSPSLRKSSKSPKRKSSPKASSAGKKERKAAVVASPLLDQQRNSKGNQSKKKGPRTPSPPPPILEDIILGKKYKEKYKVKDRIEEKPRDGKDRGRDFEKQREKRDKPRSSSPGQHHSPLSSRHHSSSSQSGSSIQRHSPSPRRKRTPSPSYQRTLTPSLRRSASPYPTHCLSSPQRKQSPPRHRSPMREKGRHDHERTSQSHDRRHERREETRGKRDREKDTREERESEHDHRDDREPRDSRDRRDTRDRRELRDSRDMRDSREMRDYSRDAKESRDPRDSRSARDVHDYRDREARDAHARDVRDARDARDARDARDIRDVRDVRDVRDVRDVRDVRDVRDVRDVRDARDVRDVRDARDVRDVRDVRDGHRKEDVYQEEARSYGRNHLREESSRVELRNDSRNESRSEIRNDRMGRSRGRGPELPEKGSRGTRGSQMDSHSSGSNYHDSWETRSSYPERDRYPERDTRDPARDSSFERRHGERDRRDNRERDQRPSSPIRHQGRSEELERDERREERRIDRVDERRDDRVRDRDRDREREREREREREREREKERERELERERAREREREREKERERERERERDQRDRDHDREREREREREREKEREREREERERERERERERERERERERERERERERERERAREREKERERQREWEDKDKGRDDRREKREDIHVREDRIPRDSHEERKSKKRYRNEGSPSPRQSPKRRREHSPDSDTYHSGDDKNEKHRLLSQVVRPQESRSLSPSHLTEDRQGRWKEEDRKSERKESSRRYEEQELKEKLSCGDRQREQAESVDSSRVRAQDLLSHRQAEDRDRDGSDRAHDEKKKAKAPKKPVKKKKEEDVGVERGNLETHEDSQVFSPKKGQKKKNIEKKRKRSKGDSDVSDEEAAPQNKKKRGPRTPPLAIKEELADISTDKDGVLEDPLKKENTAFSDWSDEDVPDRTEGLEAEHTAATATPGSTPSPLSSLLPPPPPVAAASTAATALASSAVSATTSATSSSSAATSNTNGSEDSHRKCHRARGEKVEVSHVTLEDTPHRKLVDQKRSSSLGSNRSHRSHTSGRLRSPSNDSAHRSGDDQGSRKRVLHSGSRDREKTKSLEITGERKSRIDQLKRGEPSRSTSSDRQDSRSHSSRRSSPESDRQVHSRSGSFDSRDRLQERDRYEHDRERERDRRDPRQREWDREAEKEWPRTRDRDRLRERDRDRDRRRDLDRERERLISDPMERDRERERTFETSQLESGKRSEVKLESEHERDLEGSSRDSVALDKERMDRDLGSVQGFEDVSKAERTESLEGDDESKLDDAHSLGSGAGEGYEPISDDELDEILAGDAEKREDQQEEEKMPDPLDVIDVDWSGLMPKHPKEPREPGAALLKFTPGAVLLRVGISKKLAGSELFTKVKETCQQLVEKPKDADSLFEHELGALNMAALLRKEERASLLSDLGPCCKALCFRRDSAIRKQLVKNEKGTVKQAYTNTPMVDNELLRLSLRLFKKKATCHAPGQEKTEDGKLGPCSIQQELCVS
# UniProt Q8BFQ4: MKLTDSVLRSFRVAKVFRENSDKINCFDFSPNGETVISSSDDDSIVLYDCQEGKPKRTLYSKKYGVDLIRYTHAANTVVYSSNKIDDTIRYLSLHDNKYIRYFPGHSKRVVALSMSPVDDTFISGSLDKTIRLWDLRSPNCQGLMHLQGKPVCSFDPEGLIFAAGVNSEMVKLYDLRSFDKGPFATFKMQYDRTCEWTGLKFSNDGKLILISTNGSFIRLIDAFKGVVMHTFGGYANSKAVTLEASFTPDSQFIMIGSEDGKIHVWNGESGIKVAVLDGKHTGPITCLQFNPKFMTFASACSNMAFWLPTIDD
# UniProt P97868: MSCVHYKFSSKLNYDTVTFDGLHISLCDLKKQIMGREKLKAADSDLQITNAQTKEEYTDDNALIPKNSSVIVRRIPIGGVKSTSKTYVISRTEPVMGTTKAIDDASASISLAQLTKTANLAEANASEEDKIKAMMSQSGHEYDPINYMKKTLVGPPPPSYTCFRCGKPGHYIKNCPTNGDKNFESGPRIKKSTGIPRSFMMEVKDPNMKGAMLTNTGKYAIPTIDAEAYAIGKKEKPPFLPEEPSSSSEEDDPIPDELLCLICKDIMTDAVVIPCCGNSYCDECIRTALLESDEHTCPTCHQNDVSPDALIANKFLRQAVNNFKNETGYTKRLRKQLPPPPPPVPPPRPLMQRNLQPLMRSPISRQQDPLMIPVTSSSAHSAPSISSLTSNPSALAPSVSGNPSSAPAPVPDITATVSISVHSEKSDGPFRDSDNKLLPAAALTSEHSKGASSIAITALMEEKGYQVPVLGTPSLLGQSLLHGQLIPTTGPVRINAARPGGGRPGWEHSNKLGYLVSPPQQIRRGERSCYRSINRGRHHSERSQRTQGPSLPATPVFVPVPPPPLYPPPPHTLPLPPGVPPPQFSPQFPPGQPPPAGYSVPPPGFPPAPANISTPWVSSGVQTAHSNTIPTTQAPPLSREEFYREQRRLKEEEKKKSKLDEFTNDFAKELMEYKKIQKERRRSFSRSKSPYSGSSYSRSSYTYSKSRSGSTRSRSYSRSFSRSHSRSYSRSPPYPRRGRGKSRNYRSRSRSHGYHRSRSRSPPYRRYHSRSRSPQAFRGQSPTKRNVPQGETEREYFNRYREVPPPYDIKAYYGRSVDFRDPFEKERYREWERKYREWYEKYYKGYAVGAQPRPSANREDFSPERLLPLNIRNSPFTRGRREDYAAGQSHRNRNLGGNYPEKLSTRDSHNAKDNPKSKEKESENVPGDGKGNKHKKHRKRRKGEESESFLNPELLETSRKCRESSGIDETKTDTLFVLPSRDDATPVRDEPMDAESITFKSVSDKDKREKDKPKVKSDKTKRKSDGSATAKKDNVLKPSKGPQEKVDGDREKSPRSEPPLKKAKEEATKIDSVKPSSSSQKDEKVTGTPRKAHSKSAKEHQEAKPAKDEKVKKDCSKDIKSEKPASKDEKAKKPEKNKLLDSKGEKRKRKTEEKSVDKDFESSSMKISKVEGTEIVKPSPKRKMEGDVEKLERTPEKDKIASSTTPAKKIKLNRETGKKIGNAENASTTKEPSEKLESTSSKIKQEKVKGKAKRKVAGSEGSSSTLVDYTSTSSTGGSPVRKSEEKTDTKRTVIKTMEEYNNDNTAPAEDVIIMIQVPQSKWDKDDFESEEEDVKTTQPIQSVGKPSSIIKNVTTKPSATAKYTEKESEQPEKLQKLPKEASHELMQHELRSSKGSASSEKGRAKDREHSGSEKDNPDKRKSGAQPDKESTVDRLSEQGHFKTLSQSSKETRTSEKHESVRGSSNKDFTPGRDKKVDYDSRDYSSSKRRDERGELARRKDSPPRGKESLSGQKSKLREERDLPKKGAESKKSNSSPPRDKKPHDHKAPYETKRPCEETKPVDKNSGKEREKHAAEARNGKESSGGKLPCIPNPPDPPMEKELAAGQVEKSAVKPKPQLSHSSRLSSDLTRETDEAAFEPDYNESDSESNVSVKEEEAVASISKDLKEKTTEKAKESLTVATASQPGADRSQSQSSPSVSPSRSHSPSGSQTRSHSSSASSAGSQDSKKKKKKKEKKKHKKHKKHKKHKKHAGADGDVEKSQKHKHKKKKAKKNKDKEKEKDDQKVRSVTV
# T1: emGFP-PreScission-RBM15 (UniProt Q0VBL3)
# T1 sequence: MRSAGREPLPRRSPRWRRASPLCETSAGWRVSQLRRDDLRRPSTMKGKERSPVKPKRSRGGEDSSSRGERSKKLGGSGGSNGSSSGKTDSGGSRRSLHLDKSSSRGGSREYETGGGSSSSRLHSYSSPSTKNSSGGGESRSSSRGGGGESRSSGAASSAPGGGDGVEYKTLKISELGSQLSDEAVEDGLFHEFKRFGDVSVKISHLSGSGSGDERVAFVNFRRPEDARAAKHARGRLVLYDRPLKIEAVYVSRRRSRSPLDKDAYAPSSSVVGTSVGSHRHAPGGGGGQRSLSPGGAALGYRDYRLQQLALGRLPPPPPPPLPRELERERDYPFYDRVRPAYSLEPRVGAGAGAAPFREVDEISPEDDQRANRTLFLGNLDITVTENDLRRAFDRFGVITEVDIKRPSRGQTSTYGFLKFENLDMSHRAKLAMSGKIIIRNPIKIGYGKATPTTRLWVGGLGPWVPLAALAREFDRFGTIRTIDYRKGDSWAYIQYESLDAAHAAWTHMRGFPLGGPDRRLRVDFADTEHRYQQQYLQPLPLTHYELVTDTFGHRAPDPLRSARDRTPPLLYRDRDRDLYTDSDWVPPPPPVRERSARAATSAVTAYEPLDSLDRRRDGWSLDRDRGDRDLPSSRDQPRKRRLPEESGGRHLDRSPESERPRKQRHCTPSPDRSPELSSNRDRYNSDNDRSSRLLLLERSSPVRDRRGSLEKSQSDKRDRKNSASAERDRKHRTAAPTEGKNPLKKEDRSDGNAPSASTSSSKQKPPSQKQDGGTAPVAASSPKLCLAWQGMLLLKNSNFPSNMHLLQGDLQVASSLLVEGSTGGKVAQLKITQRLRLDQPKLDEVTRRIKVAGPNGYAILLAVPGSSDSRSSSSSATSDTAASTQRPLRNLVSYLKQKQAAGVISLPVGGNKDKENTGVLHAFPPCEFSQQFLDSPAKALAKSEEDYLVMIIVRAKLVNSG
# Biological target: T1, emGFP-PreScission-RBM15
# Assay: affinity purification with mass spectrometry; emGFP-PreScission-RBM15 captured on GFP-nanobody Dynabeads from benzonase-treated mESC nuclear extract (Dox 24 hr), 4 hrs at 4°C, IP buffer with 350mM NaCl, 20mM Hepes pH7.9, 0.2% Tween20; eluted by PreScission Protease; LC-MS/MS; control-IP from cells without Dox; two replicates, more than eight-fold enriched
row,binding,Molecule
1,binds,KIAA1429 (from UniProt A2AIV2 1-1811)
2,binds,ZC3H13 (from UniProt E9Q784 1-1729)
3,binds,SPEN (from UniProt Q62504 1-3644)
4,binds,WDR82 (from UniProt Q8BFQ4 1-313)
5,binds,RBBP6 (from UniProt P97868 1-1790)
6,binds,"CBLL1 (protein, UniProt Q9JIY2 1-491) MDHTDNELQGTNSSGSLGGLDVRRRIPIKLISKQASKVKPAPRTQRTVSRMPAKAPQGDEEGFDYNEEQRYDCKGGELFGNQRRFPGHLFWDFKINILGEKDDTPVHFCDKCGLPIKVYGRMIPCKHVFCYDCAILHEKKGDKMCPGCSDPVQRIEQCTRGSLFMCSIVQGCKRTYLSQRDLQAHINHRHMRAGKPVTRASLENVHPPIAPPPTDIPDRFIMPPDKHHMSHIPPKQHIMMPPPPLQHVPHEHYNQPHEDIRAPPAELSMAPPPPRSVSQETFRISTRKHSNLITVPIQDDSSSGAREPPPPAPAPAHHHPEYQGQPVVSHPHHIMPPQQHYAPPPPPPPPISHPMPHPPQAAGTPHLVYSQAPPPPMTSAPPPITPPPGHIIAQMPPYMNHPPPGPPPPQHGGPPVTAPPPHHYNPNSLPQFTEDQGTLSPPFTQPGGMSPGIWPAPRGPPPPPRMQGPPSQTPLPGPHHPDQTRYRPYYQ"
7,binds,"WTAP (protein, UniProt Q9ER69 1-396) MTNEEPLPKKVRLSETDFKVMARDELILRWKQYEAYVQALEGKYTDLNSNDVTGLRESEEKLKQQQQESARRENILVMRLATKEQEMQECTTQIQYLKQVQQPSVAQLRSTMVDPAINLFFLKMKGELEQTKDKLEQAQNELSAWKFTPDSQTGKKLMAKCRMLIQENQELGRQLSQGRIAQLEAELALQKKYSEELKSSQDELNDFIIQLDEEVEGMQSTILVLQQQLKETRQQLAQYQQQQSQASAPSTSRTTSSEPVDQAEVTSKDCSRLANGPSNGSSSRQRTSGSGFHREGSTPEDDFPSSSGNGNKASNSSEERTGRGGSSYINPLSAGYESVDSPTGSENSLTHHSNDTDSSHDPQEEKAVSGKGNRTVGSRHVQNGLDSSVNVQGAVL"

# — article PMC7097882
